Source: paper PMC7132976
These are yes or no findings as the source states them, for the method shown. In cells and extracts the contact can be indirect. Some entries that bind do so weakly or less than the wild type.

The chains behind the UniProt entries cited, without tags or fusion partners.
UniProt Q14999: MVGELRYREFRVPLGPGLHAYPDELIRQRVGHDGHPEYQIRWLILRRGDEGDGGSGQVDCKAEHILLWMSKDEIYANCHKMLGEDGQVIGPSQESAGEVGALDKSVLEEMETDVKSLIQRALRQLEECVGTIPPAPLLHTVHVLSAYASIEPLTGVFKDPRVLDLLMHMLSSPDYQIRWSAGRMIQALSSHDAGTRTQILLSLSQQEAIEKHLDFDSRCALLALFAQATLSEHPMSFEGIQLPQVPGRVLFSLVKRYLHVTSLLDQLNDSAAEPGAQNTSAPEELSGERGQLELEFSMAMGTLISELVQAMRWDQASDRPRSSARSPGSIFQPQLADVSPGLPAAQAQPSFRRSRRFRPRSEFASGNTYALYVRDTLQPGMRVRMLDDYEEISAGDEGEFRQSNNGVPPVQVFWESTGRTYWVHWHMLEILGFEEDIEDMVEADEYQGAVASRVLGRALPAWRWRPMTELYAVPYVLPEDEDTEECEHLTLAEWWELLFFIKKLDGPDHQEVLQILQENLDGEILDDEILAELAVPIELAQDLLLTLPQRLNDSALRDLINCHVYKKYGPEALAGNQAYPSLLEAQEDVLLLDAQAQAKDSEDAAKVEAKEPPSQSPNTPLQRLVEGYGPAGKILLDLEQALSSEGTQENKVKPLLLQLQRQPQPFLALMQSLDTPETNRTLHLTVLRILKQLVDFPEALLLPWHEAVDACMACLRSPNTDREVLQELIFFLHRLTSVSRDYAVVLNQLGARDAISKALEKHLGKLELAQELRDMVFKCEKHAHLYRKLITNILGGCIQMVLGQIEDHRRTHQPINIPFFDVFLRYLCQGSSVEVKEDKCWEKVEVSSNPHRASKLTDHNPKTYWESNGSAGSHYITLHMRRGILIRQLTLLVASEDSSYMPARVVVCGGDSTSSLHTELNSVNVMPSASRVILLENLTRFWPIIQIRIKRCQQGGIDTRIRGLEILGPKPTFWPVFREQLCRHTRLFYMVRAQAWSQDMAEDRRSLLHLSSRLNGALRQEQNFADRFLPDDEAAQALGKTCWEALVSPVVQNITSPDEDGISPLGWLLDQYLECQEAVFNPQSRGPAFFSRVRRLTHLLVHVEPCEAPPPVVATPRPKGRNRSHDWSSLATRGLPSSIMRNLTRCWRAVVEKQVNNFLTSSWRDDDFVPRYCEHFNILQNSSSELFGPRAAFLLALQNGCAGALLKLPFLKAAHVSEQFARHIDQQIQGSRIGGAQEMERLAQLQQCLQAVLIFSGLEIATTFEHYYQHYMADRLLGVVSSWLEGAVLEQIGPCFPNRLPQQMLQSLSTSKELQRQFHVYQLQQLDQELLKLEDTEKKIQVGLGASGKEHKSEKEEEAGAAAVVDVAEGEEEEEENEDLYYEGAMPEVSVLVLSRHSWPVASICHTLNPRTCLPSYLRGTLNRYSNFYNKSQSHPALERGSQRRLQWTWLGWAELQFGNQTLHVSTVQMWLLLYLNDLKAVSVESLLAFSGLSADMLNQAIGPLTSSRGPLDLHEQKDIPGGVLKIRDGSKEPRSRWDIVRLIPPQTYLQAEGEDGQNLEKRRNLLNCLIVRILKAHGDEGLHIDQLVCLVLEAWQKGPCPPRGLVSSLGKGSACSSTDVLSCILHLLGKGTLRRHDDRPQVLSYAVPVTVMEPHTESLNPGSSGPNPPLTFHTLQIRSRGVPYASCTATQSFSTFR

Biological target: T1, MST1 (mammalian sterile 20 like kinase 1) (human (endogenous in U87MG, U251 and GSC267)) (UniProt Q13043)
T1 sequence: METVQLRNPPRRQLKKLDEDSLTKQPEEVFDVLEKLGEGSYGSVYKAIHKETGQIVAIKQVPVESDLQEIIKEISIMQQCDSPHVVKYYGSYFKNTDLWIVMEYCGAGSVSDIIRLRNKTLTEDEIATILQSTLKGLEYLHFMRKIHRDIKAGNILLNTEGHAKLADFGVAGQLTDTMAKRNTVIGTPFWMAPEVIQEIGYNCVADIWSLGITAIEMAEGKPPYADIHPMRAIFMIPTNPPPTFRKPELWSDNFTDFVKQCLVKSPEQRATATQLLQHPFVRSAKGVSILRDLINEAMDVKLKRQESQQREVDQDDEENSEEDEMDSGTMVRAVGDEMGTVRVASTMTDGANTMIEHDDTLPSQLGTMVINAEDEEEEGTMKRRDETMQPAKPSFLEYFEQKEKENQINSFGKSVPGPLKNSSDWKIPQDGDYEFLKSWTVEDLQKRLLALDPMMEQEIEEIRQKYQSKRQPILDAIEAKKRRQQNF
Experiment: co-IP; endogenous proteins; lysates of U87MG, U251 and GSC267 cells (transfected with NC or si-CUL7) in IP buffer (Pierce) with protease inhibitors; 5 ug anti-CUL7 or anti-MST1 antibody or IgG and Protein A/G agarose beads overnight at 4 °C; western blot

binding: binds
Substance: Cullin-7 (CUL7) (from UniProt Q14999 1-1698)
